These are yes or no findings as the source states them, for the method shown. Binding can be weak; no strength is given. For some of these results: Where a sequence is shown, tags or fusion partners need not be part of it. For some of these results: In cells and extracts the contact can be indirect. Blank lines part the entries; values can stand above or below the molecule they belong to.
Experiments:
HAM1-6xHis (A. thaliana) = biological target: T1, HAM1-6xHis (A. thaliana) (UniProt Q9FLF7); experiment: pull-down
T1 sequence: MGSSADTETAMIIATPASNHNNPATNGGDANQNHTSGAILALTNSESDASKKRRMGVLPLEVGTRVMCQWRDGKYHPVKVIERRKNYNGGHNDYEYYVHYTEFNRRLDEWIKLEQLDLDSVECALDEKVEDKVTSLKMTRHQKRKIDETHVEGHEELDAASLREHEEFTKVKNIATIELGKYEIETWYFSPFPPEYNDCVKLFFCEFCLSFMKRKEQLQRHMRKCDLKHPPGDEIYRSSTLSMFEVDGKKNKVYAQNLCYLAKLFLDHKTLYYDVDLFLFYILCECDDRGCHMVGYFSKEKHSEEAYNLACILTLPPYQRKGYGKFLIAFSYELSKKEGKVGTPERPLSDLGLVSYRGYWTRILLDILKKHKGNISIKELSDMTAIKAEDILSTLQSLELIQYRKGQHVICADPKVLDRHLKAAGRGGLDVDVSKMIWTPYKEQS

Protein sequences, listed by entry. Tags and fused reporters are not part of them. Lines headed by an entry give the natural chain unless they say otherwise; changes in a name come on top.
UniProt Q9LXD7: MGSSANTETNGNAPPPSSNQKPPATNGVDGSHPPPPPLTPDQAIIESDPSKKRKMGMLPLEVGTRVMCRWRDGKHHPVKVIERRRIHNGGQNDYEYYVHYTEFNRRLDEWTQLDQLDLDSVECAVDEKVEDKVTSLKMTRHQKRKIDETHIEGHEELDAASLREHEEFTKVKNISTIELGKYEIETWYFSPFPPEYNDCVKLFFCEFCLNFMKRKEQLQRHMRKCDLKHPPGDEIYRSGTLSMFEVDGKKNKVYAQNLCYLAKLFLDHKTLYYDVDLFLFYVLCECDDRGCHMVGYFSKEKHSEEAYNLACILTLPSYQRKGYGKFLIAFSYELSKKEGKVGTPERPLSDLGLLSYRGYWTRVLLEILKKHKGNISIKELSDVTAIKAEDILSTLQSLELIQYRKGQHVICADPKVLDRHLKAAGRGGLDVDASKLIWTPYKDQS
UniProt Q9FX82: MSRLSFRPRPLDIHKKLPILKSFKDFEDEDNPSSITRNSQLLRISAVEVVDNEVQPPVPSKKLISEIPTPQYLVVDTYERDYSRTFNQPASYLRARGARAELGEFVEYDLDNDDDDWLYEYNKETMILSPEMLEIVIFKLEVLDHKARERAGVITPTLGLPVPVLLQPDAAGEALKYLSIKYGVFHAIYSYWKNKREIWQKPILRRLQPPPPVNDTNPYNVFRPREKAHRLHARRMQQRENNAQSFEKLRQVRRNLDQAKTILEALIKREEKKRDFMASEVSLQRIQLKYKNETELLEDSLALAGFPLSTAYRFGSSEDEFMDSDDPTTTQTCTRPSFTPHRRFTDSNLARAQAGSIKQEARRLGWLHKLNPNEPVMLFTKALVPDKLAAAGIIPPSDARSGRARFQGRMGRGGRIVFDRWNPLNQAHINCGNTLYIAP
UniProt F4IDH5: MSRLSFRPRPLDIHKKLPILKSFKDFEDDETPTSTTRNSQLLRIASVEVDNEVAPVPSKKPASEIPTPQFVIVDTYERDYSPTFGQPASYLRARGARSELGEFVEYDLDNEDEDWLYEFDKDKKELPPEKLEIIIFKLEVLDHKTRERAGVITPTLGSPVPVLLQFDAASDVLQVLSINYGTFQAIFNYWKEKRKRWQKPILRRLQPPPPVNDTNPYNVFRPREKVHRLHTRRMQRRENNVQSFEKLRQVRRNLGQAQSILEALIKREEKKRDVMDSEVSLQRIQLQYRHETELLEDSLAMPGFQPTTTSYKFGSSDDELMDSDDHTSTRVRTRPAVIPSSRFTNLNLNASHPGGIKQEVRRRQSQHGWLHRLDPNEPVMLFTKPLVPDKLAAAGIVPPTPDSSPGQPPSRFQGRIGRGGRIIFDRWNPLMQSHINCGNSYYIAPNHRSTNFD

[1] = biological target: T2, HAM1 fused with His-tag (A. thaliana) (UniProt Q9FLF7); experiment: pull-down
T2 sequence: T1 sequence

[2] = biological target: HAM2 fused with His-tag (A. thaliana) (UniProt Q9LXD7); experiment: pull-down
[3] = biological target: AtEPL1A fused with GST-tag (A. thaliana) (UniProt Q9FX82); experiment: far-Western, overlay or dot blot
[4] = biological target: AtEPL1B fused with GST-tag (A. thaliana) (UniProt F4IDH5); experiment: far-Western, overlay or dot blot

Molecule: AtEPL1A fused with GST-tag (from UniProt Q9FX82)
binding [1]: binds
binding [2]: binds

Molecule: AtEPL1B fused with GST-tag (from UniProt F4IDH5)
binding [1]: binds
binding [2]: binds

Molecule: FLAG-AtEPL1A (A. thaliana)
binding (HAM1-6xHis (A. thaliana)): binds

Now from value to molecule:

binding (HAM1-6xHis (A. thaliana)): binds
Molecule: AtEAF6 (A. thaliana)

binding [3]: binds
binding [4]: binds
Molecule: HAM2 fused with His-tag (from UniProt Q9LXD7 1-445) (enzyme)

binding [3]: binds
binding [4]: binds
B1: HAM1 fused with His-tag (enzyme, UniProt Q9FLF7 1-445)
chain: T1 sequence
